In the supplement of paper PMC10849652:
The list shows a part of the results.

The chains behind the UniProt entries cited, without tags or fusion partners. Where a name states a change or a piece, a line headed by the entry shows the natural chain unless it says otherwise.
UniProt P42679: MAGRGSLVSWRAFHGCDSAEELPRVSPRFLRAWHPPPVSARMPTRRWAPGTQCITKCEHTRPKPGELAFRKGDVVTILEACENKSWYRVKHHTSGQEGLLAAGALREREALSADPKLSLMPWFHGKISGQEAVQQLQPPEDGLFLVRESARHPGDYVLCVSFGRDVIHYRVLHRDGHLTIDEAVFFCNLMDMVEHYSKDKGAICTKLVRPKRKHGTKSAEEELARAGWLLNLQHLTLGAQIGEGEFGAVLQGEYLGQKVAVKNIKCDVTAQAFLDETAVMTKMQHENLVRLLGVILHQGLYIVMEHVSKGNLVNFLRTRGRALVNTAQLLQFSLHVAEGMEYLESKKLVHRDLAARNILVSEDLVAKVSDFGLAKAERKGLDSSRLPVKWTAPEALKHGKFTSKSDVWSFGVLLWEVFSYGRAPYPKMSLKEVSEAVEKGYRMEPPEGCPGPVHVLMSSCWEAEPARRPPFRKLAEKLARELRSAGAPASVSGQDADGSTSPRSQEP
UniProt Q8IX19: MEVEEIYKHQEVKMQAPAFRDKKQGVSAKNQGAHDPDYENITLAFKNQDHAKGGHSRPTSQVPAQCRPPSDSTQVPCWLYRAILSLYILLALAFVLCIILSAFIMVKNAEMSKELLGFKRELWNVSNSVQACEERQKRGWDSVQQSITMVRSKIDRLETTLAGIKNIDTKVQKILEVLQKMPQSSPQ
UniProt P21741: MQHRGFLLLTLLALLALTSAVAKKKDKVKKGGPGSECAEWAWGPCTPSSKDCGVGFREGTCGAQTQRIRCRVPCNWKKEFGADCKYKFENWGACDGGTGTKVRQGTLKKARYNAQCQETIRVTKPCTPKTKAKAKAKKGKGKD
MCTS2P, A0A3B3IRV3, UniProt A0A3B3IRV3, whole entry, looked up: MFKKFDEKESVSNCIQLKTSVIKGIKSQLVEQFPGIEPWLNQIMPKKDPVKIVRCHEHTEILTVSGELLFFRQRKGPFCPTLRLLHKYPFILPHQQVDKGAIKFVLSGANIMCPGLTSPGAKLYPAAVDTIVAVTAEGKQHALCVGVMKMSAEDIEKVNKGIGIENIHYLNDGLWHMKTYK
UniProt P55083: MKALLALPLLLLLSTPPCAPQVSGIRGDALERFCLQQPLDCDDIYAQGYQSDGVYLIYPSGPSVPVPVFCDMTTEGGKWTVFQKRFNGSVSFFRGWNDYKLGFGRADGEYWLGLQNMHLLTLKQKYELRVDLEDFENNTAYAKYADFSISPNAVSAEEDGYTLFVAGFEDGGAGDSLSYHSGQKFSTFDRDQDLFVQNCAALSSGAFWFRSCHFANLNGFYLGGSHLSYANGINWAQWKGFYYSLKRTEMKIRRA
UniProt Q9H204: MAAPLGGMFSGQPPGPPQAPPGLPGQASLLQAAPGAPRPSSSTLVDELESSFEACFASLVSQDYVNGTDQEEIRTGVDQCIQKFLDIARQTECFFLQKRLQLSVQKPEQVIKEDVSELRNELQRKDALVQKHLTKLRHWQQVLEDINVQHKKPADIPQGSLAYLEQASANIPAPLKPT
UniProt Q6P1Q9: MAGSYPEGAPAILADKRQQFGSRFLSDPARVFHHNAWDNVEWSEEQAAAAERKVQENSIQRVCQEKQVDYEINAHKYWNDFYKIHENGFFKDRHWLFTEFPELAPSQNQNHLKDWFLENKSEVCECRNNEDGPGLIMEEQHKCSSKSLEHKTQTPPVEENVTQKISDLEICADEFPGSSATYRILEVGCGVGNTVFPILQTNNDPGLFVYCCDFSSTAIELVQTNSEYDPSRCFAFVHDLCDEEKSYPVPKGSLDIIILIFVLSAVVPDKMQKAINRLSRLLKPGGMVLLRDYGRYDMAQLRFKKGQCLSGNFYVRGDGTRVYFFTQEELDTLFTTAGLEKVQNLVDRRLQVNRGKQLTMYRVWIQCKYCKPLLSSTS
UniProt Q8WXB1: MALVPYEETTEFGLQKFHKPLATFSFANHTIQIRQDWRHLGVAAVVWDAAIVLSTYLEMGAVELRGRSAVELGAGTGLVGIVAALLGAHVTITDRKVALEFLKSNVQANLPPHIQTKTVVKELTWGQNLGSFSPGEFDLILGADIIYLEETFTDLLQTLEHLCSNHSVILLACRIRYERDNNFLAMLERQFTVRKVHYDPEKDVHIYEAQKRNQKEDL
UniProt Q5U5Q3: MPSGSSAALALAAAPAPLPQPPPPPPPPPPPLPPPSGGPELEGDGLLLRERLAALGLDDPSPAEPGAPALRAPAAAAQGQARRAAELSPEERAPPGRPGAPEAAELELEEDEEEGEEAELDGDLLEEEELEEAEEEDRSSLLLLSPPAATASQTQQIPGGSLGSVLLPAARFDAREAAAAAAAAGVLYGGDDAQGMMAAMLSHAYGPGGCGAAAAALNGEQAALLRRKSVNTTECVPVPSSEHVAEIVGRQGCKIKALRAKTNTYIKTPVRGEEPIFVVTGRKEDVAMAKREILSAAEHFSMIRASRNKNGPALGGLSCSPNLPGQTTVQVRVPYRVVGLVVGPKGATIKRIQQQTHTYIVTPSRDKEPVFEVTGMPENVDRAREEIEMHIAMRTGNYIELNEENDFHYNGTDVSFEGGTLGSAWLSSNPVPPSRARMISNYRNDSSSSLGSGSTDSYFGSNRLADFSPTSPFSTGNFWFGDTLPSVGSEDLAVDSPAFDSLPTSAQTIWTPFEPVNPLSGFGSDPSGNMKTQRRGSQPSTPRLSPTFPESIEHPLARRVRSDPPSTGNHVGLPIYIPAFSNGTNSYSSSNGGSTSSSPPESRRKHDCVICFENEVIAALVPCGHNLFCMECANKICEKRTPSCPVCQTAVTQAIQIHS
UniProt A6NJ78: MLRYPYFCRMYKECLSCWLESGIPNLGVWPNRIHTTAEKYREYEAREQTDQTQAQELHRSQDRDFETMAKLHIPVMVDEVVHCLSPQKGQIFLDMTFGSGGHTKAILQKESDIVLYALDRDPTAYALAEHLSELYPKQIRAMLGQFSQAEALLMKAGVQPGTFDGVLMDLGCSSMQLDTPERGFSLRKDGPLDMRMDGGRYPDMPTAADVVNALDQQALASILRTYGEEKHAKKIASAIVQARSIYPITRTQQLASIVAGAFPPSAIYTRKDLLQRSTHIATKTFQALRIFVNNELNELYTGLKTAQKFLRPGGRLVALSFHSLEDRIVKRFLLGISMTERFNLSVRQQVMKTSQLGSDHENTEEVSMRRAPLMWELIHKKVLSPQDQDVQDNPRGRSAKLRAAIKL
UniProt O43462: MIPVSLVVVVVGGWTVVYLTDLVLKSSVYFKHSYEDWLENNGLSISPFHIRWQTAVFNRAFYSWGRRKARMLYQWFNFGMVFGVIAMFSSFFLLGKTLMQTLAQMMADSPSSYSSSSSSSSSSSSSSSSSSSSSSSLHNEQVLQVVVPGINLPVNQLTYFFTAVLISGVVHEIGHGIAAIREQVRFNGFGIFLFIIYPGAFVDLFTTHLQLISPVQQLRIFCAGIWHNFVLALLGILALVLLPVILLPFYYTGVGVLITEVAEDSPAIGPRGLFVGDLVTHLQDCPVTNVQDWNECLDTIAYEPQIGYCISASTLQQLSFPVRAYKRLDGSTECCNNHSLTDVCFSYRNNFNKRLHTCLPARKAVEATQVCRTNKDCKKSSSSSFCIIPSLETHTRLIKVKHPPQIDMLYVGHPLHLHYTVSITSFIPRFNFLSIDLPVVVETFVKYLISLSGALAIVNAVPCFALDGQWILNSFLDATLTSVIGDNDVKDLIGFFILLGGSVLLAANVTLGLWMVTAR
UniProt O00470: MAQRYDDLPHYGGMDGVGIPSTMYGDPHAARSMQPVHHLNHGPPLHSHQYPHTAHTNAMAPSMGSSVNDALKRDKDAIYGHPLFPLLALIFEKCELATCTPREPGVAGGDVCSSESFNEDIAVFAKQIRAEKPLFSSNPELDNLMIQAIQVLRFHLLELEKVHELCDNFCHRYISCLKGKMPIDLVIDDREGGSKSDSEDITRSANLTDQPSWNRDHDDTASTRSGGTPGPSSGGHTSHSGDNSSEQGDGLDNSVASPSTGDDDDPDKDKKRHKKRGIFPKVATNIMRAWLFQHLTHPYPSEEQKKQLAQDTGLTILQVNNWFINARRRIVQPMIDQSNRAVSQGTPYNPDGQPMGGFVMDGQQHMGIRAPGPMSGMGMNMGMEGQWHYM
UniProt Q6ZSS7: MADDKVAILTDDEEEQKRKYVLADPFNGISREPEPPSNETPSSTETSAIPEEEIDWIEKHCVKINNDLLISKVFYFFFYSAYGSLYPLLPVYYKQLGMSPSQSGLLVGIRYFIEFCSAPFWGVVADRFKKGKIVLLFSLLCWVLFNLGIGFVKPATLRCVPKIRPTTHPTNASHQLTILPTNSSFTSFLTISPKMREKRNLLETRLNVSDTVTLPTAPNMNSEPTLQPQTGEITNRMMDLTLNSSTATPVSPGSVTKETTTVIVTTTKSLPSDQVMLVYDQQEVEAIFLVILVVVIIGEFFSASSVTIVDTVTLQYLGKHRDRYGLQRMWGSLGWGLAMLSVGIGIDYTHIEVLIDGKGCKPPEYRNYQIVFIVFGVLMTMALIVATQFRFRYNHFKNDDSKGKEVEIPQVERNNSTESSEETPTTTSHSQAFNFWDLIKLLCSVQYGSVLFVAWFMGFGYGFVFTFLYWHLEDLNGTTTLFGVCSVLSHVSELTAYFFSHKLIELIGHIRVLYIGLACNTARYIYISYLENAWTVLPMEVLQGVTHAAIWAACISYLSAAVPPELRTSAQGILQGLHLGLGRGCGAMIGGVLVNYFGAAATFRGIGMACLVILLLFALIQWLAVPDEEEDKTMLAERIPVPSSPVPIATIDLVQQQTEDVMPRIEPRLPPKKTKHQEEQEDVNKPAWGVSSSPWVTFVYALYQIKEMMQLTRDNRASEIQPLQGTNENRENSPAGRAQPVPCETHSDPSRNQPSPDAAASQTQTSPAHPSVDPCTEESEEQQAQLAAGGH
UniProt Q05BQ5, whole entry, looked up: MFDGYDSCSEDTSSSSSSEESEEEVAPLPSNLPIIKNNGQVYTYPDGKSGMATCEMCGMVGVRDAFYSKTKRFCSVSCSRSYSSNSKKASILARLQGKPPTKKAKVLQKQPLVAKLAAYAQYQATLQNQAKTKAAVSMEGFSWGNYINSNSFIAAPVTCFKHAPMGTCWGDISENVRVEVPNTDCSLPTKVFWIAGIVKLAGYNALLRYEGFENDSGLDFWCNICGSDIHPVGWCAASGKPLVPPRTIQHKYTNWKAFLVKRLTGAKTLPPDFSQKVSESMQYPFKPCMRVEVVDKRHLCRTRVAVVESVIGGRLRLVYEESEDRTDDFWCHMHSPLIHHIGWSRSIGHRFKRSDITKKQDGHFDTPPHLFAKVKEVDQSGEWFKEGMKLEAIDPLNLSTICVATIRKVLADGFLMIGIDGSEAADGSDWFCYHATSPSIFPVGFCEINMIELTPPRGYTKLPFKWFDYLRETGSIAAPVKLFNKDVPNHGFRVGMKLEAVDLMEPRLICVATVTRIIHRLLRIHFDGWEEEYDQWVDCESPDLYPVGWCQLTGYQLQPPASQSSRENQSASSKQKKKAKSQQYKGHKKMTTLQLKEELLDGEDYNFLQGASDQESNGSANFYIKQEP
UniProt Q9NWR8: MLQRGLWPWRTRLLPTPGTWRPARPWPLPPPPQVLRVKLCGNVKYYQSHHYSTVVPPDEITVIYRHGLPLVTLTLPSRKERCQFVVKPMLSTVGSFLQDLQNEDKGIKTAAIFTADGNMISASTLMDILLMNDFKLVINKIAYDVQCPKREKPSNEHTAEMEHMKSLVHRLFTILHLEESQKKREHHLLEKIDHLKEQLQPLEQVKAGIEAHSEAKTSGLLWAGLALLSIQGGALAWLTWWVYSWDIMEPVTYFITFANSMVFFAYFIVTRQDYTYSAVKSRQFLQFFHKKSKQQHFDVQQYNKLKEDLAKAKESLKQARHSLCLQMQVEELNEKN
UniProt Q5TF39: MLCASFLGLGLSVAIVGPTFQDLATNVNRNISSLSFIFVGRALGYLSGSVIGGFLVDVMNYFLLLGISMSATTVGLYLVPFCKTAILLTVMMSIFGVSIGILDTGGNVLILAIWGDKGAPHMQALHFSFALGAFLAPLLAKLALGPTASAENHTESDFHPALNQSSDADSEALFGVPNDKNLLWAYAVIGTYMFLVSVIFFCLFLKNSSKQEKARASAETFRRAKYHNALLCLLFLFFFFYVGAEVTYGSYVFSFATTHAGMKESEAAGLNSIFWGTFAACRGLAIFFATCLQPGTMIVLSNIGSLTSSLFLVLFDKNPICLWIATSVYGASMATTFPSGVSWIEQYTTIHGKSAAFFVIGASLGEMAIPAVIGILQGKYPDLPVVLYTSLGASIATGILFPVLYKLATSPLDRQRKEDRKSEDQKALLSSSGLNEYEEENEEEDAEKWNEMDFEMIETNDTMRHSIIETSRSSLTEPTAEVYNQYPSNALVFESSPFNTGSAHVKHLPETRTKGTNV
UniProt Q9NX70: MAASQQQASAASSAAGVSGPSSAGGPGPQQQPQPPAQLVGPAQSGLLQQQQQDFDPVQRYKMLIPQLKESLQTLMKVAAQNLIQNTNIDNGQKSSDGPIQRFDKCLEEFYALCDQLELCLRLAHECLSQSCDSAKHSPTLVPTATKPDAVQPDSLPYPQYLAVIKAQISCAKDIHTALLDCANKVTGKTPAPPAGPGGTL

What was measured:
Experiment in all cases: log2 fold change, soluble protein after heating vs DMSO (PISA); higher = thermal stabilisation; K562 lysate, 10 uM; active = over 0.2 and 3.5 SD of the protein, either way, in both replicates (recomputed)
[1] = compound: CCCS(=O)(=O)Nc1ccc(F)c(C(=O)c2c[nH]c3ncc(Cl)cc23)c1F
Procedure, shortened: (§1)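 Thermal stability, expressed as log-two fold change relative to solvent controls, is given from duplicates. Crude K562 extract in PBS pH 7.4 with 1 mM MgCl2, at 1 mg/mL protein, was treated with 10 μM compound for 30 min and heated in aliquots for 3 min across 48°C-58°C. After pooling, adjustment to 0.5% NP-40 at 4°C and centrifugation at 21,000xg for 90 min, supernatant protein was measured by TMTpro 16plex LC-MS/MS with channel sums equalised.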

volasertib = compound: CC[C@@H]1C(=O)N(C)c2cnc(Nc3ccc(C(=O)N[C@H]4CC[C@H](N5CCN(CC6CC6)CC5)CC4)cc3OC)nc2N1C(C)C [volasertib]
Procedure, shortened: as §1

[2] = compound: CCn1c(C(=O)N(C2CC2)C2CC2)cc2c3c(ncn3C)c(Nc3cc(C)n(C)n3)nc21
Procedure, shortened: as §1

[3] = compound: CCn1cc(-c2ccnc3[nH]c(-c4cccc(CN(C)C)c4)cc23)c(-c2ccc(NC(=O)N(C)C)cc2)n1
Procedure, shortened: as §1

[4] = compound: CN1CCC(CNc2ccc3ncc(-c4cccc(OC(F)(F)F)c4)n3n2)CC1
Procedure, shortened: as §1

alvocidib = compound: CN1CC[C@H](c2c(O)cc(O)c3c(=O)cc(-c4ccccc4Cl)oc23)[C@H](O)C1 [alvocidib]
Procedure, shortened: as §1

Tubastatin A = compound: CN1CCc2c(c3ccccc3n2Cc2ccc(C(=O)NO)cc2)C1 [Tubastatin A]
Procedure, shortened: as §1

alisertib = compound: COc1cc(Nc2ncc3c(n2)-c2ccc(Cl)cc2C(c2c(F)cccc2OC)=NC3)ccc1C(=O)O [alisertib]
Procedure, shortened: as §1

[5] = compound: COc1cc2nc(-c3cc(F)ccc3O)nc(N[C@@H]3CNC[C@H]3C(C)(C)O)c2cc1OC
Procedure, shortened: as §1

gefitinib = compound: COc1cc2ncnc(Nc3ccc(F)c(Cl)c3)c2cc1OCCCN1CCOCC1 [gefitinib]
Procedure, shortened: as §1

saracatinib = compound: CN1CCN(CCOc2cc(OC3CCOCC3)c3c(Nc4c(Cl)ccc5c4OCO5)ncnc3c2)CC1 [saracatinib]
Procedure, shortened: as §1

sotrastaurin = compound: CN1CCN(c2nc(C3=C(c4c[nH]c5ccccc45)C(=O)NC3=O)c3ccccc3n2)CC1 [sotrastaurin]
Procedure, shortened: as §1

[6] = compound: CNc1nc(-c2ccc3c(N)n[nH]c3c2)cc(N2C[C@@H](C(=O)NC3CCCCC3)CC[C@H]2C)n1
Procedure, shortened: as §1

[7] = compound: CC[C@@H]1C(=O)N(C)c2cnc(Nc3ccc(C(=O)NC4CCN(C)CC4)cc3OC)nc2N1C1CCCC1
Procedure, shortened: as §1

[8] = compound: CNC(=O)C1=CC=CC=C1NC2=NC(=NC=C2Cl)NC3=C(C=C(C=C3)N4CCOCC4)OC
Procedure, shortened: as §1

encorafenib = compound: COC(=O)N[C@@H](C)CNc1nccc(-c2cn(C(C)C)nc2-c2cc(Cl)cc(NS(C)(=O)=O)c2F)n1 [encorafenib]
Procedure, shortened: as §1

[9] = compound: COC(=O)[C@H](CCSC)NC(=O)C1=C(C=C(C=C1)NC[C@H](CS)N)C2=CC=CC=C2
Procedure, shortened: as §1

barasertib = compound: CCN(CCCOc1ccc2c(Nc3cc(CC(=O)Nc4cccc(F)c4)[nH]n3)ncnc2c1)CCOP(=O)(O)O [barasertib]
Procedure, shortened: as §1

vemurafenib = compound: CCCS(=O)(=O)Nc1ccc(F)c(C(=O)c2c[nH]c3ncc(-c4ccc(Cl)cc4)cc23)c1F [vemurafenib]
Procedure, shortened: as §1

defactinib = compound: CNC(=O)c1ccc(Nc2ncc(C(F)(F)F)c(NCc3nccnc3N(C)S(C)(=O)=O)n2)cc1 [defactinib]
Procedure, shortened: as §1

MATK isoform 2 (UniProt P42679)
log2 fold change [1]: inactive: -0.036 | log2 fold change (volasertib): inactive: -0.047 | log2 fold change [2]: inactive: 0.201 | log2 fold change [3]: inactive: -0.137 | log2 fold change [4]: inactive: 0.078 | log2 fold change (alvocidib): inactive: -0.099 | log2 fold change (Tubastatin A): inactive: 0.018 | log2 fold change (alisertib): inactive: 0.029 | log2 fold change [5]: inactive: 0.004 | log2 fold change (gefitinib): inactive: 0.023

MCEMP1 (UniProt Q8IX19)
log2 fold change [1]: inactive: -0.145 | log2 fold change (volasertib): inactive: 0.007 | log2 fold change (saracatinib): inactive: -0.042 | log2 fold change (sotrastaurin): inactive: -0.049 | log2 fold change [6]: inactive: -0.016 | log2 fold change [5]: inactive: -0.12

MDK (UniProt P21741)
log2 fold change [1]: inactive: 0.012 | log2 fold change [7]: inactive: 0.194 | log2 fold change (volasertib): inactive: -0.114 | log2 fold change [2]: inactive: -0.043 | log2 fold change [3]: inactive: 0.333 | log2 fold change [4]: inactive: -0.224 | log2 fold change (saracatinib): inactive: 0.033 | log2 fold change (sotrastaurin): inactive: 0.035 | log2 fold change (alvocidib): inactive: 0.157 | log2 fold change (Tubastatin A): inactive: -0.026 | log2 fold change [8]: inactive: 0.045 | log2 fold change [6]: inactive: -0.034 | log2 fold change (encorafenib): inactive: -0.057 | log2 fold change [9]: inactive: 0.04 | log2 fold change (alisertib): inactive: -0.033 | log2 fold change [5]: inactive: -0.016 | log2 fold change (gefitinib): inactive: 0.031

MCFD2 isoform 2 (UniProt Q8NI22)
log2 fold change [1]: inactive: -0.008 | log2 fold change (volasertib): inactive: 0.154 | log2 fold change [5]: inactive: -0.066

MCTS2P, A0A3B3IRV3
log2 fold change [1]: inactive: -0.077 | log2 fold change (volasertib): inactive: -0.049 | log2 fold change [2]: inactive: 0.024 | log2 fold change (saracatinib): inactive: 0.096 | log2 fold change (sotrastaurin): inactive: -0.133 | log2 fold change (Tubastatin A): inactive: 0.063 | log2 fold change [8]: inactive: -0.044 | log2 fold change [6]: inactive: 0.004 | log2 fold change [5]: inactive: 0.015

MFAP4 isoform 2 (UniProt P55083)
log2 fold change [7]: inactive: -0.021 | log2 fold change (encorafenib): inactive: -0.015 | log2 fold change [9]: inactive: 0.19

MED28 (UniProt Q9H204)
log2 fold change [1]: inactive: -0.004 | log2 fold change (volasertib): inactive: 0.096 | log2 fold change [2]: inactive: 0.053 | log2 fold change [3]: inactive: -0.063 | log2 fold change [4]: inactive: 0.322 | log2 fold change (saracatinib): inactive: -0.032 | log2 fold change (sotrastaurin): inactive: -0.028 | log2 fold change (alvocidib): inactive: -0.292 | log2 fold change (Tubastatin A): inactive: 0.05 | log2 fold change [8]: inactive: 0.14 | log2 fold change [6]: inactive: 0.081 | log2 fold change (alisertib): inactive: 0.011 | log2 fold change [5]: inactive: -0.024 | log2 fold change (gefitinib): inactive: -0.217

METTL2B (UniProt Q6P1Q9)
log2 fold change [1]: inactive: 0.008 | log2 fold change (barasertib): inactive: -0.019 | log2 fold change (volasertib): inactive: -0.126 | log2 fold change [3]: inactive: 0.11 | log2 fold change [4]: inactive: 0.025 | log2 fold change (saracatinib): inactive: 0.108 | log2 fold change (sotrastaurin): inactive: 0.148 | log2 fold change (alvocidib): inactive: -0.024 | log2 fold change [6]: inactive: -0.166 | log2 fold change [5]: inactive: -0.013

METTL21A (UniProt Q8WXB1)
log2 fold change [1]: inactive: 0.04 | log2 fold change (barasertib): inactive: 0.062 | log2 fold change (volasertib): inactive: -0.034 | log2 fold change [2]: inactive: -0.054 | log2 fold change [3]: inactive: -0.011 | log2 fold change [4]: inactive: 0.049 | log2 fold change (saracatinib): active: 0.263 | log2 fold change (sotrastaurin): inactive: 0.04 | log2 fold change (alvocidib): inactive: 0.009 | log2 fold change (Tubastatin A): inactive: 0.052 | log2 fold change [8]: inactive: 0.087 | log2 fold change [6]: inactive: 0 | log2 fold change (alisertib): inactive: 0.004 | log2 fold change [5]: inactive: 0.011 | log2 fold change (gefitinib): inactive: -0.028

MEX3C (UniProt Q5U5Q3)
log2 fold change (sotrastaurin): inactive: -0.024 | log2 fold change [8]: inactive: 0.01 | log2 fold change (alisertib): inactive: 0.07 | log2 fold change (gefitinib): inactive: 0.284

METTL15 (UniProt A6NJ78)
log2 fold change (vemurafenib): inactive: 0.093 | log2 fold change [2]: inactive: -0.107 | log2 fold change (sotrastaurin): inactive: 0.066 | log2 fold change (Tubastatin A): inactive: -0.002 | log2 fold change (defactinib): inactive: 0.102 | log2 fold change (alisertib): inactive: 0.233 | log2 fold change (gefitinib): inactive: -0.14

MED24 (UniProt F5H5K2)
log2 fold change (alisertib): inactive: -0.02 | log2 fold change (gefitinib): inactive: -0.015

MBTPS2 (UniProt O43462)
log2 fold change [7]: inactive: -0.268 | log2 fold change (sotrastaurin): inactive: -0.111 | log2 fold change (encorafenib): inactive: 0.144 | log2 fold change [9]: inactive: -0.007

MEIS1 (UniProt O00470)
log2 fold change (barasertib): inactive: 0.054 | log2 fold change [7]: inactive: 0.272 | log2 fold change [3]: inactive: 0.115 | log2 fold change [4]: inactive: -0.031 | log2 fold change (sotrastaurin): inactive: -0.008 | log2 fold change (alvocidib): inactive: -0.117 | log2 fold change (encorafenib): inactive: 0 | log2 fold change [9]: inactive: 0.029

MFSD6 (UniProt Q6ZSS7)
log2 fold change (barasertib): inactive: 0.038 | log2 fold change [7]: inactive: 0.013 | log2 fold change [2]: inactive: -0.118 | log2 fold change [3]: inactive: 0.018 | log2 fold change [4]: inactive: 0.088 | log2 fold change (saracatinib): inactive: -0.179 | log2 fold change (alvocidib): inactive: 0.197 | log2 fold change (Tubastatin A): inactive: 0.06 | log2 fold change [8]: inactive: 0.026 | log2 fold change [6]: inactive: 0.094 | log2 fold change (encorafenib): inactive: 0.001 | log2 fold change [9]: inactive: -0.085

MBTD1 (UniProt Q05BQ5)
log2 fold change [2]: inactive: 0.085 | log2 fold change (sotrastaurin): inactive: 0.059 | log2 fold change (Tubastatin A): inactive: 0.044

MCUB (UniProt Q9NWR8)
log2 fold change [1]: inactive: -0.175 | log2 fold change (barasertib): inactive: 0.156 | log2 fold change (volasertib): inactive: -0.041 | log2 fold change [2]: inactive: -0.222 | log2 fold change [3]: inactive: 0 | log2 fold change [4]: inactive: -0.054 | log2 fold change (saracatinib): inactive: -0.096 | log2 fold change (sotrastaurin): inactive: -0.008 | log2 fold change (alvocidib): inactive: 0.019 | log2 fold change (Tubastatin A): inactive: 0.105 | log2 fold change [8]: inactive: -0.032 | log2 fold change [6]: inactive: -0.074 | log2 fold change (alisertib): inactive: 0.121 | log2 fold change [5]: inactive: -0.062 | log2 fold change (gefitinib): inactive: -0.046

METTL9 (UniProt Q9H1A3)
log2 fold change [1]: inactive: 0.116 | log2 fold change (barasertib): inactive: 0.098 | log2 fold change (volasertib): inactive: -0.186 | log2 fold change [2]: inactive: 0.203 | log2 fold change [3]: inactive: -0.115 | log2 fold change [4]: inactive: -0.129 | log2 fold change (saracatinib): inactive: -0.108 | log2 fold change (sotrastaurin): inactive: -0.075 | log2 fold change (alvocidib): inactive: 0.372 | log2 fold change (Tubastatin A): inactive: -0.165 | log2 fold change [8]: inactive: -0.005 | log2 fold change [6]: inactive: -0.037 | log2 fold change (alisertib): inactive: -0.023 | log2 fold change [5]: inactive: 0.071 | log2 fold change (gefitinib): inactive: 0.044

MFSD14B (UniProt Q5SR56)
log2 fold change [7]: inactive: -0.006 | log2 fold change [2]: inactive: -0.097 | log2 fold change [3]: inactive: -0.054 | log2 fold change [4]: inactive: 0.032 | log2 fold change (sotrastaurin): inactive: -0.176 | log2 fold change (alvocidib): inactive: -0.042 | log2 fold change (Tubastatin A): inactive: 0.264 | log2 fold change [8]: inactive: -0.087 | log2 fold change (encorafenib): inactive: 0.029 | log2 fold change [9]: inactive: -0.001 | log2 fold change (alisertib): inactive: 0.09 | log2 fold change (gefitinib): inactive: -0.269

MFSD4B (UniProt Q5TF39)
log2 fold change [1]: inactive: -0.011 | log2 fold change (barasertib): inactive: -0.079 | log2 fold change [7]: inactive: 0.059 | log2 fold change (volasertib): inactive: -0.01 | log2 fold change [2]: inactive: -0.049 | log2 fold change [3]: inactive: -0.013 | log2 fold change [4]: inactive: 0.199 | log2 fold change (saracatinib): inactive: 0.15 | log2 fold change (sotrastaurin): inactive: 0.152 | log2 fold change (alvocidib): inactive: -0.043 | log2 fold change (Tubastatin A): inactive: 0.137 | log2 fold change [8]: inactive: 0.033 | log2 fold change [6]: inactive: -0.096 | log2 fold change (encorafenib): inactive: -0.232 | log2 fold change [9]: inactive: 0.081 | log2 fold change (alisertib): inactive: -0.059 | log2 fold change [5]: inactive: 0.012 | log2 fold change (gefitinib): inactive: 0.103

MED29 (UniProt Q9NX70)
log2 fold change [2]: inactive: -0.018 | log2 fold change [3]: inactive: 0.144 | log2 fold change [4]: inactive: -0.083 | log2 fold change (saracatinib): inactive: 0.145 | log2 fold change (sotrastaurin): inactive: -0.011 | log2 fold change (alvocidib): inactive: 0.038 | log2 fold change (Tubastatin A): inactive: 0.15 | log2 fold change [8]: inactive: 0.091 | log2 fold change [6]: inactive: -0.067
